Laboratory results from PubChem BioAssay (EPA / NIEHS).
Values joined by “and” are separate entries in the source; they are usually repeats but may differ in a detail not shown here. Equal values may be shown once. Inconclusive means that the source gave no clear call. Such entries were picked first, then a sample of the others. For part of these data: Potencies beside an inconclusive call are fits to weak or partial responses and may not hold up. Where a structure was tested more than once in an assay, its records may differ in their call. Active and inactive are the calls of the source. Rule for the calls: active = hit-call score of the fitted dose curve at least 0.9, where 1 is the maximum; inconclusive = response in the unintended direction; inactive = score below 0.9.

By UniProt entry, the sequences of proteins in these tests, tags left out. Where a name states a change or a piece, a line headed by the entry shows the natural chain unless it says otherwise.
UniProt P03372, whole entry, looked up: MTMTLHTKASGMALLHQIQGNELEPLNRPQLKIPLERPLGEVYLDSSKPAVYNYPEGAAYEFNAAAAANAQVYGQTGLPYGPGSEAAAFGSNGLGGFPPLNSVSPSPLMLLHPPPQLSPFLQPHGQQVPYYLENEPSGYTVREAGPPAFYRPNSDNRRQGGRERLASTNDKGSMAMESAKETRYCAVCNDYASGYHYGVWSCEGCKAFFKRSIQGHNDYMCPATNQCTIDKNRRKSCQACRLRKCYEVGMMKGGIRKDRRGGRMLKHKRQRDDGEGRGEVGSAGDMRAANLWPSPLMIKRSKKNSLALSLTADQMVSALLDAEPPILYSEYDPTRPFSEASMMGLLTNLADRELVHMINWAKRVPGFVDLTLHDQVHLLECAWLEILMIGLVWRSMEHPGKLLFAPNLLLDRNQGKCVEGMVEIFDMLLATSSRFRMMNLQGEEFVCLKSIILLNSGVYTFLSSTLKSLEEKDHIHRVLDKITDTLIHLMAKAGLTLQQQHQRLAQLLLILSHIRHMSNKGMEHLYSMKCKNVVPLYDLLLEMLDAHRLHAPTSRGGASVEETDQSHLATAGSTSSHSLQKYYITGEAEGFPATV
UniProt Q14994: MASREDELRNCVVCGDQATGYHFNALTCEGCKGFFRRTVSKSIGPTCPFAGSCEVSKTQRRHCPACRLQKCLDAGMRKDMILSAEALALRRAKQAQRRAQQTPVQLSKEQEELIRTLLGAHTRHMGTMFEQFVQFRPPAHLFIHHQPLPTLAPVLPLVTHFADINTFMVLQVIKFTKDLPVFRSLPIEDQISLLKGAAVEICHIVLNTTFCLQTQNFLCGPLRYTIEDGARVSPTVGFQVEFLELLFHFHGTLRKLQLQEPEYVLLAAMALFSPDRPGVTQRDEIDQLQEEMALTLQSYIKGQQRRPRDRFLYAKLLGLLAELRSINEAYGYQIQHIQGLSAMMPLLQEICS
UniProt P10275: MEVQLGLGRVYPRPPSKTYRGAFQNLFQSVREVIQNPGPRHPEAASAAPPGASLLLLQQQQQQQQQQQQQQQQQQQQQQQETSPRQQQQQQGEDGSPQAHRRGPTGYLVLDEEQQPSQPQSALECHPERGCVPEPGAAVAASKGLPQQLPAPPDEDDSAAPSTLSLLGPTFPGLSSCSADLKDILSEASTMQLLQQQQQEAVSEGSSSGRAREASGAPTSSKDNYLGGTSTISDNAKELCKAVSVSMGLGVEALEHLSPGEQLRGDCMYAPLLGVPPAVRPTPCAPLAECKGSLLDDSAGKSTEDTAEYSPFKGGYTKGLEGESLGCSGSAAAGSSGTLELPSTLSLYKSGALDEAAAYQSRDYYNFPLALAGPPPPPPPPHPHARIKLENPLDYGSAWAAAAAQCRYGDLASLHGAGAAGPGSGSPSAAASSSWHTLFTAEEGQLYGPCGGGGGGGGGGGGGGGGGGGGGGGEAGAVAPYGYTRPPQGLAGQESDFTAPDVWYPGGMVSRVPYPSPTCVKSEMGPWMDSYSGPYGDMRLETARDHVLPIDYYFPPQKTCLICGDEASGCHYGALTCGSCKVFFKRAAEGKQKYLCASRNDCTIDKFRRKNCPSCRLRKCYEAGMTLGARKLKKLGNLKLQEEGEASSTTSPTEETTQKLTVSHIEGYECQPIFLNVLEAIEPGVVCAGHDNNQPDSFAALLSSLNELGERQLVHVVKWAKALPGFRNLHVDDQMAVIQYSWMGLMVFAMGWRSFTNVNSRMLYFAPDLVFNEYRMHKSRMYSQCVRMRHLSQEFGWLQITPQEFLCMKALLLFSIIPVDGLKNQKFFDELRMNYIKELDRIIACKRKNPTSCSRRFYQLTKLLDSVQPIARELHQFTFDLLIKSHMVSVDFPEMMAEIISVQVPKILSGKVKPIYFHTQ
UniProt P42336, whole entry, looked up: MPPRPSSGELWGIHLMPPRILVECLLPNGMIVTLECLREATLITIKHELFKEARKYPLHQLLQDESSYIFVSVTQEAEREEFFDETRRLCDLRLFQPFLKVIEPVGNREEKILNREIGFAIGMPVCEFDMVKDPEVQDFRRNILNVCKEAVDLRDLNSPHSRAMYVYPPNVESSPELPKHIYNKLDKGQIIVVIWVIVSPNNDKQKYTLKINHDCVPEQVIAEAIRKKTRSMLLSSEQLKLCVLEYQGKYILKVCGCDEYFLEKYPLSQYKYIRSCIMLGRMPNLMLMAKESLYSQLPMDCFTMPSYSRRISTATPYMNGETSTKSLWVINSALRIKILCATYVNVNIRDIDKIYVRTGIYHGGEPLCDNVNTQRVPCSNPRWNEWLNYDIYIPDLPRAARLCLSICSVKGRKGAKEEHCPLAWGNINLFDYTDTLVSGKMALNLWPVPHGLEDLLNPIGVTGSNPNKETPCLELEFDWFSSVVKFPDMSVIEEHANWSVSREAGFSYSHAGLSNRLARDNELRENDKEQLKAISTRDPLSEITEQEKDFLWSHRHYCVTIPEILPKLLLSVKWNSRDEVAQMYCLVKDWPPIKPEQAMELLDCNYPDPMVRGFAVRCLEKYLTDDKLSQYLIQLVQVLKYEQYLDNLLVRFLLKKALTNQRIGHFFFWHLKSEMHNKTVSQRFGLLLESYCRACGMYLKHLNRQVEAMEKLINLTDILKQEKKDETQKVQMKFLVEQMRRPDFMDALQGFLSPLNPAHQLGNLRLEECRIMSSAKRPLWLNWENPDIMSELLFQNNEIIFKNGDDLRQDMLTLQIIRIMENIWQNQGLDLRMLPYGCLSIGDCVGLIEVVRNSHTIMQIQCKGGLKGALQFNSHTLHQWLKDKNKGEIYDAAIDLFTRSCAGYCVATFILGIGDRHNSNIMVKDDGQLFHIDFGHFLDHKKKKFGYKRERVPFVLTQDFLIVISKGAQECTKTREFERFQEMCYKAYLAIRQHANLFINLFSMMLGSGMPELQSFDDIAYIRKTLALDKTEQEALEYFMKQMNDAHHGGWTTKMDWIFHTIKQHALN
UniProt P08684, whole entry, looked up: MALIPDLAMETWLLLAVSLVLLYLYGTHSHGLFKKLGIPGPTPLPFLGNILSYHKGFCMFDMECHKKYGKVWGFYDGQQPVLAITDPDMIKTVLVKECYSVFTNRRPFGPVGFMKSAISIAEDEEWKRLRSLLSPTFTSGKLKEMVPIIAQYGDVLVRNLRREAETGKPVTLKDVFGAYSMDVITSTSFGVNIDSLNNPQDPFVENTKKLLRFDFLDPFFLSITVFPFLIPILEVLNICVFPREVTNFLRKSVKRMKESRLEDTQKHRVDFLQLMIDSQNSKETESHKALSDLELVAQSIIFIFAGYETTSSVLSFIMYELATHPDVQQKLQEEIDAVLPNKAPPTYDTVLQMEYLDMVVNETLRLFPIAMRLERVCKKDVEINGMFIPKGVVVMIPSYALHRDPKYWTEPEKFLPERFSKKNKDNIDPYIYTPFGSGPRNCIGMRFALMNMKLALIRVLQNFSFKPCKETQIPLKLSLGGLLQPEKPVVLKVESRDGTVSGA
UniProt P31749: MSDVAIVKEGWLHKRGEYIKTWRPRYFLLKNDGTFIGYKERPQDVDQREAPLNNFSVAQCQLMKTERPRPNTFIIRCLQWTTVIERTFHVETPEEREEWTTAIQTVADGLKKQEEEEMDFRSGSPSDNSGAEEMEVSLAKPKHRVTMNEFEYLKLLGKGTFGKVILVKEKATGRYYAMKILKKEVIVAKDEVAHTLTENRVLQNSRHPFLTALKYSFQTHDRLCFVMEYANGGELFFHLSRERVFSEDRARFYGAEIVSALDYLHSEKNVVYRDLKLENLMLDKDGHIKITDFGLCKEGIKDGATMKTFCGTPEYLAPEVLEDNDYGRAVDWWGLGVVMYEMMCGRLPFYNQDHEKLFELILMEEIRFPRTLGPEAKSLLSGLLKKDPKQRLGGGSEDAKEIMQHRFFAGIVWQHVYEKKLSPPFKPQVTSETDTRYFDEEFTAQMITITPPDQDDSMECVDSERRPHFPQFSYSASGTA
UniProt P16257, whole entry, looked up: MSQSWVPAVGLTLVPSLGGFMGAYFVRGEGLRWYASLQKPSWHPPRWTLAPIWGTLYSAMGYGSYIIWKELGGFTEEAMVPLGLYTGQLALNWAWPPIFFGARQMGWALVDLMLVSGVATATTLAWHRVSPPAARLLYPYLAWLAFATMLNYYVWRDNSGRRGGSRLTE

What was measured:
[1] = molecular target: Estrogen receptor (Homo sapiens) (UniProt P03372); test: CCTE_Deisenroth_AIME_384WELL_LUC_Active: CCTE's 384-well Estrogen Receptor Transactivation Assay with AIME metabolic competence (ERTA luciferase; metabolism positive), Deisenroth Lab (AID 2284030)
How it was run: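 VM7Luc4E2 breast cells were given, for 24 hours, medium pre-incubated for 2 hours with parent chemical (0.002-200 uM, 10 concentrations) and alginate-encapsulated phenobarbital/beta-naphthoflavone-induced rat hepatic S9. Luciferase gain of signal was fitted against 17beta-estradiol; n=4 or more.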

[2] = Tanguay_ZF_120hpf_EYE_legacy: (Legacy) Oregon State University Tanguay Lab 120 Hour Post-fertilization zebrafish Assay for Eye Malformation (AID 2283636);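 note: binary presence or absence of eye malformation scored by brightfield in 120 hpf larvae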
How it was run: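 Static waterborne exposure of dechorionated zebrafish embryos (strain Tropical 5D), 6 to 120 hpf, sealed plates at 28C, 0.64% DMSO vehicle. Eye malformation is scored as a binary endpoint, with gain of signal analysed relative to DMSO.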

[3] = molecular target: human Constitutive Androstane Receptor (CAR), NR1I3 (gene 9970) (UniProt Q14994); test: NVS_NR_hCAR_Antagonist: NovaScreen (NVS) Nuclear Receptor Binding Assay for human Constitutive Androstane Receptor Antagonism (CAR) (AID 2283344)
How it was run: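 Single 25 uM duplicate primary screen, with concentration-series follow-up on actives. Cell-free binding format run in antagonist mode, TR-FRET signal taken 1 h post-dose; activity is signal loss relative to DMSO.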

[4] = Tanguay_ZF_120hpf_CFIN_legacy: (Legacy) Oregon State University Tanguay Lab 120 Hour Post-fertilization zebrafish Assay for Caudal Fin Malformation (AID 2283649)
How it was run: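 Binary brightfield scoring of caudal fin defects at 120 hpf after static, light-shielded exposure at 28C from 6 hpf. Tropical 5D embryos, chorion removed with pronase at 4 hpf, final DMSO 0.64%.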

[5] = Tanguay_ZF_120hpf_PIG_legacy: (Legacy) Oregon State University Tanguay Lab 120 Hour Post-fertilization zebrafish Assay for Pigmentation Malformation (AID 2283650)
How it was run: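 Endpoint is incidence of abnormal pigmentation at 120 hpf in dechorionated 5D zebrafish exposed singly from 6 hpf at 28C, DMSO vehicle at 0.64%. Embryos dying by 24 or 120 hpf are excluded from scoring.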

[6] = Tanguay_ZF_120hpf_TRUN_legacy: (Legacy) Oregon State University Tanguay Lab 120 Hour Post-fertilization zebrafish Assay for Truncated Body (AID 2283655)
How it was run: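 Binary presence/absence of truncated body is recorded at 120 hpf by brightfield, with non-mortality endpoints skipped after death. Exposure is static from 6 hpf in sealed dark plates at 28C, using dechorionated wild-type zebrafish, 0.64% DMSO.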

[7] = molecular target: AR (gene 367) (UniProt P10275); test: ACEA_AR_antagonist_80hr: ACEA Biosciences xCELLigence Real-Time Cell Analysis on Androgen Receptor Antagonism for Proliferation (AID 2283787);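 note: 22Rv1 human prostate cancer cells with growth followed by electrical impedance; hits lower the impedance growth signal relative to DMSO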
How it was run: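 Using 22Rv1 cells held in assay medium, we dosed compounds (100 uM maximum final, 1:4 serial, eight points, 0.5% DMSO at top) and recorded cell-electrode impedance; the 80 hr timepoint was analyzed against DMSO.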

[8] = CCTE_Shafer_MEA_dev_AB: CCTE's Alamar Blue Assay for Cytotoxicity in the Neural Network Formation Assay, Shafer Lab (AID 2284083);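 note: resazurin reduction fluorescence as viability of cultured neurons; twelve days of exposure from plating with re-dosing on DIV 5 and 9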
How it was run: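 Rat cortical primary cultures, 1.5 x 10^5 cells/well on MEA; continuous compound exposure over 12 days of network development, re-dosed with full medium change DIV 5 and 9. Alamar Blue fluorescence; loss of signal = cytotoxicity vs DMSO baseline.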

[9] = molecular target: human Phosphoinositide 3-kinase alpha (PI3Ka), PIK3CA (gene 5290) (UniProt P42336); test: NVS_ENZ_hPI3Ka: NovaScreen (NVS) Enzymatic Assay for human Phosphoinositide 3-kinase alpha (PI3Ka) (AID 2283196)
How it was run: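 Fluorescence/mobility-shift readout of substrate conversion by recombinant enzyme, 1 h post-dosing. Primary screen in duplicate at 25 uM; actives (e.g. ≥30% inhibition) retested in singleton concentration-response, top concentration 50 uM.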

[10] = STM_H9_NormalizedViability: Cytotoxicity Assessment at 120 hours in the Stemina devTOX quickPredict H9 human embryonic stem cell (hESC)-based Assay (AID 2283784)
How it was run: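 CellTiter-Fluor RFU, background-subtracted, expressed relative to 0.1% DMSO neutral control by plate. Pluripotent H9 cells; treatment with daily re-dosing. Plates carried 1uM methotrexate (positive) and 5 nM methotrexate (negative) references.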

[11] = molecular target: Cytochrome P450 3A4 (Homo sapiens) (UniProt P08684); test: NVS_ADME_hCYP3A4: NovaScreen (NVS) CYP450-related Enzyme Activity (ADME) Assay for human CYP3A4 (AID 2283110)
How it was run: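 Activity is derived from decreased fluorescence intensity relative to acetonitrile, measured 0.33 hour after dosing insect-cell-expressed CYP3A4 in a cell-free format. Screening used 10 uM in duplicate before concentration-response follow-up.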

[12] = read-out: glucuronosyltransferase (UGT1A1), UGT1A1 (gene 54658); test: CLD_UGT1A1_6hr: CellzDirect (CLD) Gene Expression Assay for glucuronosyltransferase (UGT1A1) at 6 hours (AID 2283672)
How it was run: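 UGT1A1 mRNA induction, read by quantitative nuclease protection assay, 6 h after dosing primary human hepatocytes (two donors, 0.2% DMSO vehicle). Gain of signal fitted relative to vehicle.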

[13] = read-out: xenobiotic metabolism (CYP1A2), CYP1A2 (gene 1544); test: CLD_CYP1A2_24hr: CellzDirect (CLD) Gene Expression Assay for xenobiotic metabolism (CYP1A2) at 24 hours (AID 2283683)
How it was run: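 CYP1A2 mRNA induction measured by quantitative nuclease protection (chemiluminescent) in human primary hepatocytes 24 h after multi-concentration chemical dosing with daily fresh solutions. DMSO (0.2%) baseline; positive-direction fitting; morphology-based cytotoxicity noted.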

[14] = molecular target: human AKT serine/threonine Kinase 1 (AKT1), AKT1 (gene 207) (UniProt P31749); test: NVS_ENZ_hAKT1: NovaScreen (NVS) Enzymatic Assay for human AKT serine/threonine Kinase 1 (AKT1) (AID 2283138)
How it was run: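 Fluorescence and mobility-shift readout of kinase activity, taken 1 h post-dosing in a cell-free format with recombinant protein. Primary screen at 25 uM in duplicate; hits (e.g. 30% inhibition) retested in concentration series topping at 50 uM.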

[15] = molecular target: rat Peripheral-type Benzodiazepine Receptor (PBR), Tspo (gene 24230) (UniProt P16257); test: NVS_MP_rPBR: NovaScreen (NVS) Membrane Protein Assay for rat Peripheral-type Benzodiazepine Receptor (PBR) (AID 2283335)
How it was run: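 Single-concentration duplicate screening at 25 uM preceded concentration-series retesting of actives. Binding of a specific radioligand to rat kidney membrane PBR was read by filtration radiodetection after 1 h, with plate-wise positive and negative controls.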

[16] = CCTE_Shafer_MEA_dev_LDH: CCTE's Lactate Dehydrogenase Assay for Cytotoxicity in the Neural Network Formation Assay, Shafer Lab (AID 2284068);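 note: exposure for twelve days from plating with re-dosing on DIV 5 and 9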
How it was run: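 Rat cortical primary neurons, MEA culture; dosing day 0–12, full medium plus compound exchange DIV 5, 9. Read-out: LDH enzyme activity, spectrophotometric. DMSO = negative control/baseline; signal loss → cytotoxicity.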

[17] = molecular target: Ratio of Nucleoli Translocation and Cytoplasm, AR (gene 367) (UniProt P10275); test: UPITT_HCI_U2OS_AR_TIF2_Nucleoli_Cytoplasm_Ratio_Agonist: University of Pittsburgh U2OS Androgen Receptor-Transcriptional Intermediary Factor 2 (AR-TIF2) Agonism High Content Imaging Assay for Ratio of Nucleoli Translocation and Cytoplasm (AID 2284000);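 note: hits raise the red nucleolar to cytoplasm ratio above vehicle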
How it was run: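 Primary screen at 20 uM final (0.2% DMSO), then triplicate confirmation and dose-response from 0.195 to 50 uM final (0.5% DMSO). Cells: U2OS with AR-RFP and TIF2-GFP. Endpoint is the nucleoli/cytoplasm red-fluorescence ratio, gain-of-signal vs DMSO.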

[18] = CCTE_Mundy_HCI_hNP1_Pro_ResponderAvgInten: CCTE's Proliferation Assay in human neuroprogenitor cells, Mundy Lab (AID 2284224);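 note: human neural progenitor cells hNP1 derived from WA09 embryonic stem cells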
How it was run: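 Human neuroprogenitors (hNP1, WA09 lineage) receive test chemical after 40 to 44 hours of attachment. A four-hour BrdU pulse begins twenty hours later, followed by fixation and high content imaging; signal is referenced to DMSO controls.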

[19] = read-out: ABC Transporter (ABCB1), ABCB1 (gene 5243); test: CLD_ABCB1_24hr: CellzDirect (CLD) Gene Expression Assay for ABC Transporter (ABCB1) at 24 hours (AID 2283684);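 note: potency for increase in ABCB1 mRNA relative to DMSO vehicle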
How it was run: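 ABCB1 mRNA induction versus 0.2% DMSO vehicle was read by qNPA chemiluminescence at 24 h. Cultured human hepatocytes from two donor preparations received daily fresh dosing, and phase-contrast cytotoxicity calls were annotated alongside the data.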

[20] = Tanguay_ZF_120hpf_JAW_legacy: (Legacy) Oregon State University Tanguay Lab 120 Hour Post-fertilization zebrafish Assay for Jaw Malformation (AID 2283638);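 note: active means more embryos with jaw malformation than DMSO controls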
How it was run: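 Binary jaw-malformation call at 120 hpf by brightfield microscopy. Embryos (Tropical 5D strain, chorion removed at 4 hpf) were dosed statically at 6 hpf, one per well, at 28C with 0.64% DMSO. Embryos that died were not scored.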

## CCC(C)Nc1c([N+](=O)[O-])cc(C(C)(C)C)cc1[N+](=O)[O-] (stereo unspecified)
[1]
  AC50: active: 11.1 µM

## CCOCCOC(C)=O
[2]
  AC50: inconclusive: 3.64 µM

## CCOC(=O)CC(SP(=S)(OC)OC)C(=O)OCC (stereo unspecified)
[3]
  AC50: active: 18.6 µM
[2]
  AC50: active: 38.7 µM
[4]
  AC50: active: 36.2 µM
[5]
  AC50: inconclusive: 173 µM
[6]
  AC50: active: 34.2 µM
[7]
  AC50: active: 88.6 µM
[8]
  AC50: active: 22.9 µM and active: 25.1 µM

## Nc1c(Oc2ccccc2)cc(O)c2c1C(=O)c1ccccc1C2=O
[9]
  AC50: active: 3.26 µM

## COCCOCCO
[10]
  AC50: inconclusive: 50 µM
[1]
  outcome: inactive

## OC(c1ccc(Cl)cc1)(c1cncnc1)c1ccccc1Cl (stereo unspecified)
[11]
  AC50: active: 3.87 µM
[3]
  AC50: active: 25 µM
[6]
  AC50: inconclusive: 200 µM
[12]
  outcome: inactive
[13]
  outcome: inactive

## COC(=O)c1ccccc1S(=O)(=O)NC(=O)N(C)c1nc(C)nc(OC)n1
[14]
  outcome: inactive

## Nc1ncc([N+](=O)[O-])s1
[9]
  AC50: inconclusive: 6.21 µM

## CCNc1nc(Cl)nc(NC(C)C)n1
[15]
  AC50: inconclusive: 0.15 µM
[1]
  AC50: inconclusive: 1.74 µM
[16]
  AC50: inconclusive: 0.003 µM
[8]
  AC50: inconclusive: 10 µM

## CCOP(=O)(OCC)SCCSCC
[15]
  AC50: inconclusive: 25 µM

## OC(Cc1ccccc1Cl)(Cn1[nH]cnc1=S)C1(Cl)CC1 (stereo unspecified)
[17]
  AC50: inconclusive: 50 µM
[18]
  AC50: active: 31.6 µM

## COP(=O)(OC)O/C(C)=C/C(=O)N(C)C
[14]
  AC50: inconclusive: 25 µM
[12]
  outcome: inactive
[19]
  AC50: inconclusive: 20 µM
[18]
  outcome: inactive

## CN(C)CCN(C)C
[11]
  AC50: inconclusive: 0.0178 µM

## CON=C(C(=O)OC)c1ccccc1CON=C(C)c1cccc(C(F)(F)F)c1
[20]
  AC50: active: 5.3 µM
[18]
  AC50: active: 79.9 µM

## Clc1ccc(COC(Cn2ccnc2)c2ccc(Cl)cc2Cl)cc1 (stereo unspecified)
[17]
  AC50: active: 74.4 µM

## OCC(O)CO
[15]
  outcome: inactive
[1]
  AC50: active: 0.0002 µM

## CCC(C)n1c(=O)[nH]c(C)c(Br)c1=O (stereo unspecified)
[20]
  AC50: inconclusive: 2.21 µM
[6]
  AC50: inconclusive: 4.34 µM
[19]
  AC50: inconclusive: 33.3 µM
[10]
  AC50: inconclusive: 0.00596 µM

## CC1COC(Cn2cncn2)(c2ccc(Oc3ccc(Cl)cc3)cc2Cl)O1 (stereo unspecified)
[14]
  outcome: inactive
[9]
  AC50: inconclusive: 25 µM
[2]
  AC50: inconclusive: 1.74 µM
[4]
  AC50: inconclusive: 47.3 µM
[5]
  AC50: inconclusive: 12.7 µM
[6]
  AC50: inconclusive: 49.6 µM

## COC(=O)NS(=O)(=O)c1ccc(N)cc1
[3]
  outcome: inactive
[5]
  outcome: inactive
[12]
  AC50: active: 20 µM
[1]
  outcome: inactive

## CCCOC(=O)c1ccccc1C(=O)OCCC
[15]
  outcome: inactive

## Cc1cccc(C)c1N
[20]
  AC50: inconclusive: 1.85 µM

## CCCCC(CC)COC(=O)c1ccccc1C(=O)OCC(CC)CCCC (stereo unspecified)
[3]
  outcome: inactive
[16]
  AC50: active: 11.3 µM
  outcome: inactive
[8]
  AC50: inconclusive: 0.0143 µM
[18]
  AC50: active: 9.27 µM and active: 3.62 µM

## COS(=O)(=O)OC
[4]
  AC50: inconclusive: 33.2 µM

## N#Cc1c[nH]cc1-c1cccc2c1OC(F)(F)O2
[13]
  AC50: active: 1.56 µM
[19]
  AC50: inconclusive: 4.81 µM
[10]
  AC50: active: 76.4 µM

## CCOP(=S)(OCC)SCn1nnc2ccccc2c1=O
[11]
  AC50: inconclusive: 2.98 µM
[9]
  AC50: inconclusive: 25 µM

## Nc1ccc(-c2ccc(N)cc2)cc1
[14]
  AC50: inconclusive: 6.78 µM
[5]
  AC50: inconclusive: 0.0449 µM

## CCSC(C)CC1CC(=O)C(C(CC)=NOC/C=C/Cl)=C(O)C1 (stereo unspecified)
[17]
  outcome: inactive
